# Experimental data reported in the supplement of paper PMC12578635.
# The list shows a part of the results. No stated cut-off is given here; in the data, active = 150% or more and inactive = the rest. Single values are uncertain, as repeats are few or missing.
# System: Staphylococcus aureus JE2-lux inside RAW 264.7 macrophages
# Assay: intracellular bacterial bioluminescence relative to DMSO vehicle; higher = higher intracellular bacterial metabolic activity
# Conditions: 10 µM; treatment time 4 h; gentamicin 50 µg/ml
row,SMILES,intracellular bacterial bioluminescence
1,Cc1cc(C)cc(N2CC(C)Cn3c2nc2c3c(=O)n(CC(=O)O)c(=O)n2C)c1 (stereo not drawn),inactive: 91%
2,O=C(O)C(=Cc1nc(-c2ccccc2)n2ccccc12)C(=O)O,inactive: 123%
3,O=C(O)c1cccnc1SCc1cc2c(cc1Cl)OCO2,inactive: 114%
4,CC1C(=O)N2CCCc3cc(NC(=O)C(=O)NCc4cccs4)cc1c32 (stereo not drawn),inactive: 20.7%
5,Nc1c(C(=O)NCc2ccc3c(c2)OCO3)sc2nc(-c3cccs3)c3c(c12)CCCC3,inactive: 92.7%
6,Cc1ccc2c(C(O)CN3CCC4(CC3)CC(O)c3ccccc3O4)c(C)[nH]c2c1 (stereo not drawn),inactive: 101%
7,CN(c1cncc(C(=O)NCc2ccco2)c1)S(=O)(=O)c1ccccc1,inactive: 102%
8,NC(=O)c1ccsc1NC(=O)c1ccccc1I,inactive: 101%
9,COc1ccc(N2C(=O)C3N=NN(CC(=O)Nc4ccc(C)cc4C)C3C2=O)cc1Cl (stereo not drawn),inactive: 87.2%
10,COCCCNC(=O)c1cncc(-c2ccc(C)cc2)c1,inactive: 98.1%
11,CC(=O)c1ccc(NC(=O)Nc2c[nH]c3ccccc23)cc1,inactive: 92.1%
12,CCOc1ccc(-c2noc(CSc3nc4cc5c(cc4c(=O)n3C3CCCC3)OCO5)n2)cc1,inactive: 98.8%
13,CC(C)(C)c1nc2ccccc2c2nn(CC(=O)NCC3CC3)c(=O)n12,inactive: 90.1%
14,Cc1c(C)n(-c2cc(F)cc(F)c2)c2ncnc(Cl)c12,inactive: 101%
15,COc1cccc(N(CC(=O)NCc2ccc(F)cc2)C(=O)CN2C(=O)COc3ccccc32)c1,inactive: 89.3%
16,CCOC(=O)c1cc([N+](=O)[O-])sc1NC(=O)c1ccc(S(=O)(=O)N(C)C)cc1,inactive: 118%
17,Clc1ccc2nc(N3CCN(c4nc5ccccc5s4)CC3)sc2c1,inactive: 107%
18,CCCCOC(=O)c1cnn2c(C(F)(F)F)cc(-c3ccc(F)cc3)nc12,inactive: 117%
19,CC1CCCN(CCCNC(=O)Cn2cccc2-c2nc(-c3ccc(Cl)cc3)cs2)C1 (stereo not drawn),inactive: 99.7%
20,COc1ccc(-c2nn(CCCC(=O)NCCc3ccc(Cl)cc3)c(=O)c3noc(C)c23)cc1,inactive: 40.2%
21,CC(CCc1ccccc1)NC(=O)C1CCN(c2ccc3nnc(-c4ccccc4F)n3n2)CC1 (stereo not drawn),inactive: 104%
22,O=C(NNc1nc2c(Cl)cccc2s1)c1c(F)cccc1F,inactive: 66.3%
23,CCOC(=O)c1ccc(NC(=O)CSc2nc(=O)n3cc(C)ccc3n2)cc1,inactive: 85.7%
24,COc1cc2nc(Nc3cccc(Cl)c3)sc2cc1OC,inactive: 122%

# Three structures from above, sorted by number of heavy atoms, low to high:
row,SMILES,intracellular bacterial bioluminescence
17,Clc1ccc2nc(N3CCN(c4nc5ccccc5s4)CC3)sc2c1,inactive: 107%
23,CCOC(=O)c1ccc(NC(=O)CSc2nc(=O)n3cc(C)ccc3n2)cc1,inactive: 85.7%
15,COc1cccc(N(CC(=O)NCc2ccc(F)cc2)C(=O)CN2C(=O)COc3ccccc32)c1,inactive: 89.3%

# Later entries

row,SMILES,intracellular bacterial bioluminescence
1,O=C(CSc1nc2ncccc2o1)NCC1CCCO1 (stereo not drawn),inactive: 111%
2,O=C(Cc1cccc2ccccc12)Nc1nnc(-c2ccc3c(c2)OCCO3)o1,inactive: 81.7%
3,O=C(Nc1ccccc1Oc1ccccc1)c1ccc2ncsc2c1,inactive: 75.3%
4,CCc1nnsc1C(=O)Nc1sc2c(c1C(=O)NCc1ccccc1)CCCC2,inactive: 78.8%
5,O=C(CSc1ccc2nnc(-c3ccncc3)n2n1)OCc1ccccc1,inactive: 101%
6,COc1ccccc1C(=O)N1CCN(c2oc(/C=C/c3ccc(C)cc3)nc2C#N)CC1,inactive: 104%
7,O=C(c1cc(C2CC2)on1)N1CCCC1c1cccs1 (stereo not drawn),inactive: 108%
8,CC1CN(C)CCC1CCc1ccc(NC(=O)Cn2ncc3ccccc3c2=O)cc1 (stereo not drawn),inactive: 17.8%
9,O=C(NC1CCCCNC1=O)C1CCN(Cc2noc(-c3ccc(F)cc3)n2)CC1 (stereo not drawn),inactive: 118%
10,COc1ccccc1OCC(=O)NCCc1sc(-c2ccc(F)cc2)nc1C,inactive: 87.9%
11,CCS(=O)(=O)c1ccccc1C(=O)/N=c1/sc2cc([N+](=O)[O-])ccc2n1C,inactive: 101%
12,CCOC(=O)C(=O)n1cnc2ccc(C(=O)Nc3cc(OCC)c(NC(=O)c4ccccc4F)cc3OCC)cc21,inactive: 81%
13,CCOC(=O)C1=C(C)NC(O)=NC1c1ccc([N+](=O)[O-])cc1 (stereo not drawn),inactive: 28%
14,O=C(O)CC1S/C(=N\N=C/c2ccccc2)N(c2ccc(O)cc2)C1=O (stereo not drawn),active: 160%
15,CC(C)Cn1c(N2CCCC2)nc2c1c(=O)[nH]c(=O)n2C,inactive: 110%
16,CCc1cc(Sc2ccc(N)cc2)n2ncnc2n1,inactive: 122%
17,COc1ccc(Cl)cc1NC(=O)CSc1ccc2nnc(-c3ccncc3)n2n1,inactive: 87.7%
18,O=C1/C(=C/c2nc3ccccc3[nH]2)SC(=S)N1Nc1ccccc1,inactive: 36.2%
19,Cc1nnc(SCC(=O)NCc2ccccc2Cl)[nH]c1=O,inactive: 97.2%
20,Cc1ccc(-c2csc(NC(=O)c3ccc(N4C(=O)CCC4=O)cc3)n2)o1,inactive: 80.4%
21,CC(=O)Nc1ccc(NC(=O)CSc2ccc(-c3ccc(Cl)cc3)nn2)cc1,inactive: 96.8%
22,CC1(C)Cc2nc3sc4c(=O)n(CC(=O)NCC5CCCO5)cnc4c3cc2CO1 (stereo not drawn),inactive: 98.2%
23,CCCn1nc(C)cc1NC(=O)c1ncoc1-c1ccc(F)cc1,inactive: 129%
24,N#Cc1cc2cc3c(cc2nc1SCC(=O)N1CCCc2ccccc21)OCO3,inactive: 59.6%

row,SMILES,intracellular bacterial bioluminescence
1,Cc1ccc(-c2csc(-c3cccn3CC(=O)NC3CCCCCCC3)n2)cc1,inactive: 126%
2,O=C(O)c1ccc(Oc2nccnc2N2CCCCC2)cc1,inactive: 104%
3,CCC(=O)NNc1nc2c(Cl)cccc2s1,inactive: 92%
4,CSc1cccc2sc(NCc3ccccc3)nc12,inactive: 71.8%
5,Cc1c(Cl)cccc1NC(=O)Cn1c(=O)n(Cc2ccccc2)c(=O)c2sc3ccccc3c21,inactive: 101%
6,O=c1oc2ccccc2n1CCCOc1ccccc1,inactive: 74.8%
7,CC12CC(NC(=O)N1c1ccc3c(c1)OCCO3)c1ccccc1O2 (stereo not drawn),inactive: 87.5%
8,Cc1cc2cc(C#N)c(SCC(=O)N3CCc4ccccc43)nc2cc1C,inactive: 90.5%
9,CC(=O)c1cccc(NC(=O)N2CCCN(c3nc4cc(C)c(C)cc4cc3C#N)CC2)c1,inactive: 80.8%
10,CC1=C(C(=O)Nc2ccc(C)cc2)C(c2ccc(N(C)C)cc2)NC(=O)N1 (stereo not drawn),inactive: 115%
11,Cc1cc(NC(=O)CSc2nc(=O)n(CCO)c3c2CCCC3)no1,inactive: 122%
12,O=C(Nc1cccc2ccccc12)c1cnc2sccn2c1=O,inactive: 120%
13,CC(C)COc1ccc(S(=O)(=O)Nc2ccc3c(c2)C(=O)Nc2ccccc2O3)cc1,inactive: 84.2%
14,Cc1ccn2c(=O)nc(SCC(=O)N3CCC(C)CC3)nc2c1,inactive: 120%
15,Cc1ccc(CNc2nccn(-c3ccc(C)cc3C)c2=O)cc1,inactive: 97.1%
16,CC1(C)c2sc(=O)[nH]c2SC2C(=O)N(CC(=O)O)C(=O)C21 (stereo not drawn),inactive: 124%
17,Cc1ccnc(NC(=O)Nc2c[nH]c3ccccc23)c1,inactive: 99.9%
18,COCCOC(=O)c1c(C)oc2ccc(OCC(=O)c3ccc(OC)cc3)cc12,inactive: 95.5%
19,CCc1ccc2c(c1)C(O)(c1c(C)[nH]c3ccccc13)C(=O)N2 (stereo not drawn),inactive: 64.8%
20,COc1ccc2c(C)cc(SCC(=O)Nc3ccc4c(c3)OCO4)nc2c1,inactive: 69.6%
21,Cc1ccc(CN(CC(=O)N2CCNCC2)C(=O)c2cccnc2)cc1C,inactive: 76.4%
22,Cc1cc(C)n2cc(CSc3nc4cc([N+](=O)[O-])ccc4o3)nc2n1,inactive: 75.4%
23,Cc1cc2oc(C(=O)N(C)Cc3nc4cc(Cl)ccc4[nH]3)cc(=O)c2cc1C,inactive: 75.9%
24,COc1ccc(NC(=O)c2cc(-c3ccc4c(c3)OCCO4)on2)c(OC)c1,inactive: 108%

row,SMILES,intracellular bacterial bioluminescence
1,COC(=O)c1sccc1S(=O)(=O)Nc1ccc(F)cc1Cl,inactive: 84.7%
2,CCc1nc2onc(C)c2c(=O)n1CC(=O)OC,inactive: 103%
3,COc1ccc(CCNc2nc(C)nc3sc4c(c23)CCCC4)cc1OC,inactive: 79.7%
4,COc1ccc(S(=O)(=O)NC(=N)NCCc2c(C)[nH]c3ccc(F)cc23)cc1C,inactive: 92.9%
5,Cc1sc(NC(=O)c2cccnc2)nc1-c1ccc2c(c1)CCN2C(=O)C(C)C,inactive: 106%
6,O=C(Nc1ccc2c(c1)CCC2)C1CCCN(C(=O)Nc2ccc(F)cc2)C1 (stereo not drawn),inactive: 92.5%
7,COc1cc(CNC(=O)CCn2c(-c3ccccn3)cc3cccnc32)cc(OC)c1,inactive: 105%
8,CN(C)C(CNS(=O)(=O)c1ccc2c(c1)NC(=O)CO2)c1ccc2c(c1)OCO2 (stereo not drawn),inactive: 87.9%
9,COC(=O)c1ccc(CSc2nc3sc(C(=O)O)c(C)c3c(=O)[nH]2)cc1,inactive: 113%
10,Fc1cccc2sc(Nc3nc(-c4nc5ccccc5s4)cs3)nc12,inactive: 108%
11,O=C(Cn1ncn2nc3c(c2c1=O)CCCC3)Nc1ccc2c(c1)OCCO2,inactive: 78.7%
12,Cc1cc(NC(=O)CSc2nc3sc4c(c3c(=O)[nH]2)CCC(C(C)(C)C)C4)no1 (stereo not drawn),inactive: 127%
13,Cc1nc2c(cc1NC(=O)Nc1ccccc1Cl)nc(C)n2Cc1ccccc1,inactive: 60.5%
14,O=C(O)c1ccc(Nc2nc(-c3ccccc3)c3ccccc3n2)cc1,inactive: 95.3%
15,CCC(C)NC(=O)C(C)C1CCN(C(=O)c2cc3ccccc3[nH]2)CC1 (stereo not drawn),inactive: 87.4%
16,Cn1c(=O)[nH]c(=O)c2c1nc(CN1CCN(c3cccc(Cl)c3)CC1)n2Cc1cccc(Cl)c1,inactive: 122%
17,CCc1cccc(NC(=O)Cn2cnc3sc(-c4nc(-c5ccncc5)no4)c(C)c3c2=O)c1,inactive: 83.2%
18,O=C(NC1CCCCC1)N1CCC(n2cnc3cccnc32)CC1,inactive: 104%
19,COc1cc(Nc2c(C)c(C)nc3nc(Cc4cccc(F)c4)nn23)cc(OC)c1,inactive: 107%
20,Cc1ccc(CNc2ncccc2-c2nc(-c3ccccc3C)no2)cc1,inactive: 130%
21,COc1cc(Cl)ccc1Oc1ncnc2oc(C)c(C)c12,inactive: 101%

# 2 of these compounds, reformatted.
row	SMILES	intracellular bacterial bioluminescence
9	COC(=O)c1ccc(CSc2nc3sc(C(=O)O)c(C)c3c(=O)[nH]2)cc1	inactive: 113%
10	Fc1cccc2sc(Nc3nc(-c4nc5ccccc5s4)cs3)nc12	inactive: 108%
